In US9801922B2, “Compositions and methods of treating cancer” (UNIVERSITY OF IOWA RESEARCH FOUNDATION, priority 2011, dated 2017):
At least one compound was matched to its structure with a doubt left.

Assays:
[1] = test system: thioredoxin reductase (TRR); test: Thioredoxin reductase activity assay in treated SUM159 cells; format: cell-based, human
Method: FIG. 8: Intracellular thioredoxin reductase (TRR) activity measured in BSO, DTPP, and AUR exposed SUM159 cells. Asynchronously growing cultures of SUM159 were plated and treated as described in FIG. 1. Cells were harvested and scraped in PBS at 4° C. Whole cell homogenates were used for biochemical analysis of thioredoxin reductase activity. Errors represent Mean±1 SD of 4 samples from two separate experiments (n=4). *p<0.001 as compared to Control.
Thioredoxin Reductase Assay: Thioredoxin Reductase activity was measured by using Thioredoxin Reductase Assay Kit purchased from Sigma (St Louis, Mo.). 400,000 cells/100 mm dishes of SUM159 cells were plated and treated with BSO, DTPP and AUR as described above. When cells were grown to 70-80% confluency on 100 mm dishes and scraped in PBS at 4° C., centrifuged, and the cell pellets were frozen at −20° C. until analysis. The assay was performed according to manufacturer's instructions. Briefly, working buffer containing 100 mM KPO4, pH 7.0, 10 mM EDTA, and 0.24 mM NADPH was prepared, and samples were added with working buffer along with 5,5′-dithiobis-(2-nitrobenzoic acid) (Eliman's reagent, DTNB). The rate of DTNB's reduction to 2-nitro-5-thiobenzoate (TNB) was then measured spectrophotometrically at 412 nM. […]

[2] = test system: SUM159 human breast cancer cells; test: Clonogenic cell survival, SUM159; format: cell-based; conditions: 100 U/ml PEGCAT
Method: FIGS. 1A-D: BSO, DTPP and AUR treated SUM159, MDA-MB231 and HMEC Clonogenic survival. In Panel A (SUM 159), B (MDA-MB231) and C(HMEC), 150,000 cells/dish SUM159 or MDA-MB231 and 300,000 cells/dish were plated in 60 mm tissue culture dishes. After 48 hours, cells were given fresh complete HMECs media and treated with 100 μM BSO+/1 μM DTPP for 24 hours. 500 nM AUR were added 15 mins before the trypsinization of cells for clonogenic survival assay. In panel A-C, The error bars represent mean±1 SD of n=1 treatment dishes done in 3 separate experiments where each treatment dish was used to prepare 6-10 replicate cloning dishes for analysis. *p<0.001 as compared to Control. […] Mice growing Sum159 xenograft tumors were treated with 100 μM DTPP in drinking water for 2 weeks followed by i.p. injections of BSO 675 mg/kg followed in 2 hrs with Au 2.7 mg/kg. The day following injections tumors were harvested, digested and stained for ALDH positive cells. Each bar represents an average of at least three tumors. Error bars are SEM. *p<0.05 vs. control.
FIG. 2: BSO and AUR treated SUM159 dose response Clonogenic survival. 150,000 cells/dish SUM159 were plated in 60 mm tissue culture dishes. After 48 hours, cells were given fresh complete HMECs media and treated with 100 μM BSO 24 hours. 500 nM AUR were added 15 mins, 30 mins, 45 mins, 1 hr, 1.5 hrs and 3 hrs before the trypsinization. […]

SMILES: CCCCCCCCCC[P+](c1ccccc1)(c1ccccc1)c1ccccc1 [DTPP, Decyl-Triphenylphosphonium]
- effect on TRR activity, in words [1]: partially reverse the BSO+AUR induced inhibition of TRR activity
- inhibition of drug-induced toxicity by PEGCAT, in words [2]: not found to be able to inhibit
